The list is a part of this screen's results and no random one: it is rich in T/C values a quarter to a half above the control, in often repeated tests (any T/C) and in doses without a T/C. Other doses and runs of a compound stand elsewhere. T/C: endpoint of the treated group in % of that of the vehicle group. Some doses have a count of surviving animals in place of a T/C: the source holds a T/C of zero for them, seemingly a mark for toxic or unscored doses. Some survivor counts are full or nearly so, which does not show that the dose was tolerated: survival well below the control is almost never listed, so the zero probably covers shortened survival too. Counts of survivors are from the toxicity check (mostly the fifth day) where no day follows; animals may have died later. Schedule codes are those of the source, read here as Q, the interval in days (D) or hours (H), X, the number of doses. Marks such as (2×) say how often a value occurs here. Some entries were tested several times; the values are given in rising order. Where survival is the endpoint, this PubChem deposit counts one and a half times the control or more as active, and values a quarter to a half above the control carry no call in these data; other NCI protocols may use other cut-offs. Some T/C values carry the count of animals alive at the toxicity check (mostly the fifth day); without a count, all were alive then.
System: P388 leukemia ip, CD2F1 mice, survival T/C
Experiment: NCI In Vivo Anticancer Drug Screen. Data for tumor model P388 Leukemia (intraperitoneal) in CD2F1 (CDF1) mice
Settings: T/C endpoint: median survival time, higher T/C = longer survival
[1] = dose: 240.0 mg/kg/injection, schedule: Q01DX005 (ip), vehicle: saline with Tween-80
[2] = dose: 50.0 mg/kg/injection, schedule: Q01DX009 (ip), vehicle: saline
[3] = dose: 200.0 mg/kg/injection, schedule: Q01DX009 (ip), vehicle: saline with Tween-80
[4] = dose: 100.0 mg/kg/injection, schedule: Q01DX009 (ip), vehicle: Klucel (hydroxypropylcellulose) (HPC)
[5] = dose: 200.0 mg/kg/injection, schedule: Q01DX009 (ip), vehicle: Klucel (hydroxypropylcellulose) (HPC)
[6] = dose: 50.0 mg/kg/injection, schedule: Q01DX009 (ip), vehicle: Klucel (hydroxypropylcellulose) (HPC)
[7] = dose: 200.0 mg/kg/injection, schedule: Q01DX005 (ip), vehicle: Klucel (hydroxypropylcellulose) (HPC)
[8] = dose: 100.0 mg/kg/injection, schedule: Q01DX009 (ip), vehicle: saline
[9] = dose: 200.0 mg/kg/injection, schedule: Q01DX009 (ip), vehicle: saline
[10] = dose: 200.0 mg/kg/injection, schedule: Q01DX005 (ip), vehicle: saline with Tween-80
[11] = dose: 200.0 mg/kg/injection, schedule: Q04DX003 (ip), vehicle: saline with Tween-80
[12] = dose: 400.0 mg/kg/injection, schedule: Q04DX003 (ip), vehicle: saline with Tween-80
[13] = dose: 100.0 mg/kg/injection, schedule: Q01DX005 (ip), vehicle: saline with Tween-80

With O=c1nc2sccn2c2ncccc12 the survivor count (dose: 60.0 mg/kg/injection, schedule: Q01DX005 (ip), vehicle: saline with Tween-80) was 0 of 6, the survivor count (dose: 120.0 mg/kg/injection, schedule: Q01DX005 (ip), vehicle: saline with Tween-80) was 0 of 6 and the survivor count [1] was 0 of 6.
With OC(CN1CCCCC1)c1ccc(/C=C/c2ccc(Cl)cc2)cc1 (stereo unspecified) the survivor count [2] was 6 of 6.
For c1ccc2cc(N=NNc3ccc4ccccc4c3)ccc2c1, the survivor count [3] was 2 of 6.
With Nc1nc(=S)ss1 the T/C [4] was 125 % of control.
O.Oc1ccccc1C=NCCC[N-]CCCN=Cc1ccccc1O.[Co] was tested, and the T/C (dose: 12.5 mg/kg/injection, schedule: Q01DX009 (ip), vehicle: saline with Tween-80) was 125 % of control and the survivor count (dose: 50.0 mg/kg/injection, schedule: Q01DX009 (ip), vehicle: saline with Tween-80) was 3 of 6.
CNCC(O)CC12CCC(c3ccccc31)c1ccccc12 (stereo unspecified) was tested, and the survivor count [5] was 0 of 6.
For O=C1C2C3C=CC(C2C(=O)N1COP(=O)(O)O)C1C2C(=O)N(COP(=O)(O)O)C(=O)C2C31 (stereo unspecified), the T/C (dose: 160.0 mg/kg/injection, schedule: Q01DX009 (ip), vehicle: water) was 136 % of control.
With C[C@]12CCC[C@@H]3C[C@@]31C[C@@H]([C@@]1(C)CO1)CC2 the survivor count [6] was 6 of 6 and the survivor count [5] was 6 of 6.
With Nc1ccccc1SSc1ccccc1C(=O)O the survivor count [7] was 0 of 5.
With Cc1ccc(C)c2c1C(O)(C#Cc1ccccc1)c1ccccc1C2(O)C#Cc1ccccc1 (stereo unspecified) the survivor count [3] was 6 of 6.
In the case of CNC(=O)Oc1c(C)[nH]ccc1=O, the T/C (dose: 25.0 mg/kg/injection, schedule: Q01DX009 (ip), vehicle: saline) is reported as 100 (2×), 101, 107 % of control, the T/C [2] is reported as 105, 107, 114, 133 % of control and the T/C [8] is reported as 99, 101, 102, 114 % of control. The T/C [9] was 105 (2×), 107, 108 % of control and the survivor count (dose: 400.0 mg/kg/injection, schedule: Q01DX009 (ip), vehicle: saline) was 3 of 5.
With CC(CNc1nc(Nc2ccc(Cl)c(Cl)c2)nc(C(Cl)(Cl)Cl)n1)N(C)C (stereo unspecified) the survivor count (dose: 100.0 mg/kg/injection, schedule: Q01DX009 (ip), vehicle: distilled water + Tween-80) was 5 of 6 and the survivor count (dose: 200.0 mg/kg/injection, schedule: Q01DX009 (ip), vehicle: distilled water + Tween-80) was 2 of 6.
For CS(=O)(=O)OCC1NC(=O)C(COS(C)(=O)=O)NC1=O (stereo unspecified), the survivor count (dose: 200.0 mg/kg/injection, schedule: Q01DX009 (ip), vehicle: other) was 4 of 6 and the survivor count (dose: 400.0 mg/kg/injection, schedule: Q01DX009 (ip), vehicle: other) was 0 of 6.
Cc1nn(C)c2nc(=O)n(C)c(=O)c-2[n+]1[O-] was tested, and the survivor count (dose: 0.78 mg/kg/injection, schedule: Q01DX001 (ip), vehicle: Klucel (hydroxypropylcellulose) (HPC)) was 0 of 6, the survivor count (dose: 1.56 mg/kg/injection, schedule: Q01DX001 (ip), vehicle: Klucel (hydroxypropylcellulose) (HPC)) was 0 of 6 and the survivor count (dose: 3.12 mg/kg/injection, schedule: Q01DX001 (ip), vehicle: Klucel (hydroxypropylcellulose) (HPC)) was 0 of 6 (2×). For the same compound, the survivor count (dose: 6.25 mg/kg/injection, schedule: Q01DX001 (ip), vehicle: Klucel (hydroxypropylcellulose) (HPC)) was 0 of 6, the survivor count (dose: 12.5 mg/kg/injection, schedule: Q01DX001 (ip), vehicle: Klucel (hydroxypropylcellulose) (HPC)) was 0 of 6 and the survivor count (dose: 12.5 mg/kg/injection, schedule: Q01DX001 (ip), vehicle: saline) was 0 of 6. The survivor count (dose: 25.0 mg/kg/injection, schedule: Q01DX001 (ip), vehicle: saline) was 0 of 6 and the survivor count (dose: 50.0 mg/kg/injection, schedule: Q01DX001 (ip), vehicle: saline) was 0 of 6.
For C/C1=C\C(=O)OCC23CCC4(C)OC4C2OC2CC(OC(=O)/C=C/C=C/C(C(C)O)OCC1O)C3(C)C21CO1 (stereo unspecified), the T/C (dose: 2.5 mg/kg/injection, schedule: Q01DX005 (ip), vehicle: saline + alcohol) was 128 and 129 % of control, the T/C (dose: 5.0 mg/kg/injection, schedule: Q01DX005 (ip), vehicle: saline + alcohol) was 136 % of control and the T/C (dose: 10.0 mg/kg/injection, schedule: Q01DX005 (ip), vehicle: saline + alcohol) was 137 % of control.
With CN=C1NC(=O)C(c2ccccc2)S1 (stereo unspecified) the survivor count [10] was 2 of 6.
CC1CC(=O)c2c(CO)nn(CCCO)c2C1 (stereo unspecified) was tested, and the survivor count (dose: 120.0 mg/kg/injection, schedule: Q01DX005 (ip), vehicle: saline) was 5 of 6 and the survivor count (dose: 240.0 mg/kg/injection, schedule: Q01DX005 (ip), vehicle: saline) was 5 of 6.
In the case of Nc1cccc2ccccc12, the survivor count [11] is reported as 0 of 6 and the survivor count [12] is reported as 0 of 6.
With CC(=NCCCCN=C(C)c1cc(C)cc(Br)c1O)c1cc(C)cc(Br)c1O the survivor count (dose: 50.0 mg/kg/injection, schedule: Q01DX005 (ip), vehicle: Klucel (hydroxypropylcellulose) (HPC)) was 6 of 6.
In the case of c1ccc(P2CCc3[nH]c4ccccc4c3C2)cc1 (stereo unspecified), the T/C [12] is reported as 135 % of control.
For CC1=C2C3OC(=O)C(C)C3CCC2(C)CCC1=O (stereo unspecified), the survivor count (dose: 100.0 mg/kg/injection, schedule: Q04DX002 (ip), vehicle: saline with Tween-80) was 6 of 6, the survivor count (dose: 200.0 mg/kg/injection, schedule: Q04DX002 (ip), vehicle: saline with Tween-80) was 2 of 6 and the survivor count (dose: 400.0 mg/kg/injection, schedule: Q04DX002 (ip), vehicle: saline with Tween-80) was 1 of 6.
With O=C(O)CCCCCCCCCCNC(=O)CI the survivor count [6] was 1 of 6, the survivor count [4] was 1 of 6 and the survivor count [5] was 0 of 6.
With CCOC(=O)Oc1ccc(CC([NH-])C(=O)O)cc1.CCOC(=O)Oc1ccc(CC([NH-])C(=O)O)cc1.[Cu+2] (stereo unspecified) the survivor count [2] was 5 of 6, the survivor count [8] was 1 of 6 and the survivor count [9] was 1 of 6.
CC(=O)CS(F)(F)(F)(F)F was tested, and the survivor count [13] was 0 of 5 and the survivor count [10] was 0 of 5.
In the case of CC(=O)NC1=NN(C(C)=O)C(c2ccccc2)S1=O (stereo unspecified), the survivor count [10] is reported as 3 of 6.
In the case of C[S+](C)CCCNC(=O)c1csc(-c2csc(-c3ccccc3)n2)n1, the survivor count (dose: 50.0 mg/kg/injection, schedule: Q01DX005 (ip), vehicle: water) is reported as 0 of 6, the survivor count (dose: 100.0 mg/kg/injection, schedule: Q01DX005 (ip), vehicle: water) is reported as 0 of 6 and the survivor count (dose: 200.0 mg/kg/injection, schedule: Q01DX005 (ip), vehicle: water) is reported as 0 of 6.
For CN1C(=O)n2c(nc3ccccc32)C(Cl)(Cl)C1=O, the survivor count [1] was 0 of 6.
With CCCCN1C/C(=C\c2ccc(Br)cc2)C(=O)/C(=C/c2ccc(Br)cc2)C1 the survivor count (dose: 50.0 mg/kg/injection, schedule: Q01DX005 (ip), vehicle: saline with Tween-80) was 6 of 6, the survivor count [13] was 6 of 6 and the survivor count [10] was 6 of 6.
With CCCOC1NC(=O)Oc2ccccc21 (stereo unspecified) the T/C [1] was 147 % of control [5 of 6 alive] and the survivor count (dose: 480.0 mg/kg/injection, schedule: Q01DX005 (ip), vehicle: saline with Tween-80) was 2 of 6 and 3 of 6.
NC(CCC(=O)NC(CS)C(=O)NCC(=O)O)C(=O)O.[CH2-]CCC.[CH2-]CCC.[CH2-]CCC.[CH2-]CCC.[Ti+4] (stereo unspecified) was tested, and the survivor count [10] was 6 of 6.
With CCCCCCCC(C)c1cc(N)c(C)cc1[N+](=O)[O-] (stereo unspecified) the survivor count (dose: 100.0 mg/kg/injection, schedule: Q04DX002 (ip), vehicle: Klucel (hydroxypropylcellulose) (HPC)) was 0 of 6, the survivor count (dose: 200.0 mg/kg/injection, schedule: Q04DX002 (ip), vehicle: Klucel (hydroxypropylcellulose) (HPC)) was 0 of 6 and the survivor count (dose: 400.0 mg/kg/injection, schedule: Q04DX002 (ip), vehicle: Klucel (hydroxypropylcellulose) (HPC)) was 0 of 6.
In the case of ClCC1OCCO1, the survivor count [9] is reported as 4 of 6.
Cc1[nH]c(C)c(C(=O)OC2CCN(C)CC2)c1C was tested, and the survivor count (dose: 100.0 mg/kg/injection, schedule: Q04DX003 (ip), vehicle: saline with Tween-80) was 0 of 6, the survivor count [11] was 0 of 6 and the survivor count [12] was 0 of 6.
For CC(C)CS(=O)(=O)OCCCCOS(=O)(=O)CC(C)C, the survivor count [7] was 5 of 5.

From PubChem BioAssay AID330 (DTP/NCI, 2004)
